The source of these data is patent US4038222A (Hoffman-La Roche Inc., priority 1976, dated 1977).

Some peptides are written in HELM: one residue between dots, names in brackets for other building blocks, links after the first $.

A short description of this data set: general procedure: Boc solid-phase peptide synthesis; benzhydrylamine polystyrene cross-linked with 1 to 2% divinyl benzene; anhydride couplings. The following applies: whole synthesis, based on the starting resin.

“PEPTIDE1{Y.G.G.F.M.T.S.E.K.S.Q.T.P.L.V.T.L.F.K.N.A.I.I.K.N.A.H.K.K.G.Q}$$$$V2.0”: the isolated yield is given as 19.6% yield.
